Reference: the supplement of paper PMC12823440, “Inhibitors supercharge kinase turnover through native proteolytic circuits” (Nature, 2025)
Structures can show the parent of a compound that is named as a salt. The list shows a part of the results. Hit calls seldom repeat between salt and free forms of one compound.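 In K562 cells expressing nanoluciferase-fused kinases, luminescence was recorded at 4 h intervals between 2 and 18 h, normalized as percent of control with DMSO at 100% and a positive control at 0%. A significant (2 sigma) signal drop marks a time point as decreased. The authors' rule for a hit is not shown and takes in more than the number of time points.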

Chains of the proteins cited; added tags and fusions are not shown. Lines headed by an entry give the natural chain unless they say otherwise; changes in a name come on top.
UniProt P48729: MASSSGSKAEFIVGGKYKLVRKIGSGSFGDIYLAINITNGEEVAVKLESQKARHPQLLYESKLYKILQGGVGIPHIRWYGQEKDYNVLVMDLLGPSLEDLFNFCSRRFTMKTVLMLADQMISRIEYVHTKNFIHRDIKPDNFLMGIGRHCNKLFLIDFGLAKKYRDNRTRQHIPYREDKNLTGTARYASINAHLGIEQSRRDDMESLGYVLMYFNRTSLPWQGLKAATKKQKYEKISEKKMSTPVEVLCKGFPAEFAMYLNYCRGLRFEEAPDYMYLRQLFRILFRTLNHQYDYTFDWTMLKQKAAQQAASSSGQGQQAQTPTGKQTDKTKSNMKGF
UniProt P48730: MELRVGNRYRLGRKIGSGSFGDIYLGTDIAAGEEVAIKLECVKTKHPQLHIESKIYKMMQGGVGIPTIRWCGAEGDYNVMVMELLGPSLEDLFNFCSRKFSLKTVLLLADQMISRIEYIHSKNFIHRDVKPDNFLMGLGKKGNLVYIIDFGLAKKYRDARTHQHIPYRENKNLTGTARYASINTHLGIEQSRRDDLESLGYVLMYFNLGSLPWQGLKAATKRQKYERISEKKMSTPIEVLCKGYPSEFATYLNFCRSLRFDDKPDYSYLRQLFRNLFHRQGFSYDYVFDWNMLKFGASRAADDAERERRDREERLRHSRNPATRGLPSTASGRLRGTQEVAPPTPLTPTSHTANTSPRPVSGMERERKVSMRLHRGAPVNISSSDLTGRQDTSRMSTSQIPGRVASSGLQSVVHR
UniProt Q08345: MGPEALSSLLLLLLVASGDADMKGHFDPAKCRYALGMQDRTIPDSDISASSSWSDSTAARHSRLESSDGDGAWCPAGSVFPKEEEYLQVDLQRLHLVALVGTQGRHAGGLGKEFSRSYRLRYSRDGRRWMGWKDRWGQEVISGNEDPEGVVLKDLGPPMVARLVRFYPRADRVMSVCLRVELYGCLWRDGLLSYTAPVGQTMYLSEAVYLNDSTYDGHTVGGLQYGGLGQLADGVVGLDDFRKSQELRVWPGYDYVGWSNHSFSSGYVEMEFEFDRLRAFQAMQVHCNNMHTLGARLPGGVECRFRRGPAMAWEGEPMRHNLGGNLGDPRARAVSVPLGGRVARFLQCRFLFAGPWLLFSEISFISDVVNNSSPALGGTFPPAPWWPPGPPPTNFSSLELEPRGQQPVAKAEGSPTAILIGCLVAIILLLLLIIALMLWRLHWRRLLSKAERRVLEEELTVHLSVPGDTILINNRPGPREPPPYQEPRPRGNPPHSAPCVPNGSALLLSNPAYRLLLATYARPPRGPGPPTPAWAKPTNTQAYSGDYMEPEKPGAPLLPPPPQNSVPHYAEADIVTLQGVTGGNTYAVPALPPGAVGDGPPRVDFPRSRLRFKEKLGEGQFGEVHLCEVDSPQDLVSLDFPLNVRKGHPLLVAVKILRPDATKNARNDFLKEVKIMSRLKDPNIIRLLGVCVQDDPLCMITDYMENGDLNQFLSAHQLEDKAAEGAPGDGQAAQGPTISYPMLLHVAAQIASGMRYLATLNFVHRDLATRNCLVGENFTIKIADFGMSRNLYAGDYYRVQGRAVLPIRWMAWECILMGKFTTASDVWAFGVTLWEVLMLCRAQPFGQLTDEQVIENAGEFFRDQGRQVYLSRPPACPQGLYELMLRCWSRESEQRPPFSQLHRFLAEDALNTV
UniProt Q9Y463, whole entry, looked up: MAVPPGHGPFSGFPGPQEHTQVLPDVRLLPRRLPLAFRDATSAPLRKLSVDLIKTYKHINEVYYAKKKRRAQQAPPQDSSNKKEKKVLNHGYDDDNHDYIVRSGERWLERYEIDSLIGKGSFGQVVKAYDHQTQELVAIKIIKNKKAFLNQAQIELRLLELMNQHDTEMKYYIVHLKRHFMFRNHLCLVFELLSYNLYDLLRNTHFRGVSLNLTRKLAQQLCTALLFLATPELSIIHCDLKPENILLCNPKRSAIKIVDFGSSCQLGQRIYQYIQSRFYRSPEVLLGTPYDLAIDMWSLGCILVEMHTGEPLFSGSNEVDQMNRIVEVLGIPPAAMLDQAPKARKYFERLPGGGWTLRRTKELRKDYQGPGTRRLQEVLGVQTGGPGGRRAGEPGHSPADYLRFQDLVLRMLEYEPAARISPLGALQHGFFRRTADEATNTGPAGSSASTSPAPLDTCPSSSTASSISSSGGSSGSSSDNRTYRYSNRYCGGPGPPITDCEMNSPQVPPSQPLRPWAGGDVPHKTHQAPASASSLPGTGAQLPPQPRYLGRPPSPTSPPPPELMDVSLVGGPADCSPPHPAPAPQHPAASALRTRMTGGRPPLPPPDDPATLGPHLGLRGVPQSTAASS
UniProt Q92630: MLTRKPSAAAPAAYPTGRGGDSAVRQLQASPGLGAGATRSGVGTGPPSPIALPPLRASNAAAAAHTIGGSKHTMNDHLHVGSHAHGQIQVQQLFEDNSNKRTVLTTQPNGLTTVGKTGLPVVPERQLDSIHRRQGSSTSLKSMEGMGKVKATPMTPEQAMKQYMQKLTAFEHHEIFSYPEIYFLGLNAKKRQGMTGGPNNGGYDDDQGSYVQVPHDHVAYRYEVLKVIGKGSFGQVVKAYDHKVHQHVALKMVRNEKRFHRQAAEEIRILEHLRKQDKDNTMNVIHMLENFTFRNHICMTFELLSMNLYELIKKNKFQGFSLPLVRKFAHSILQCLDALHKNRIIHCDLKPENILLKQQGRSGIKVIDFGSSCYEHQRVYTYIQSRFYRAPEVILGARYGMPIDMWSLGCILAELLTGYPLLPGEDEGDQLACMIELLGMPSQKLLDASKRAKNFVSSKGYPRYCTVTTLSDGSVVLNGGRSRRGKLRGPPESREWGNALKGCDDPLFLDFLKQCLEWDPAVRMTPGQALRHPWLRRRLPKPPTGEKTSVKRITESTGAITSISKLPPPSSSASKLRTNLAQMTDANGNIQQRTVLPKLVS

Tests used:
Test in all cases: number of time points (of 5) at which kinase-Nluc abundance scored as decreased, DMSO-normalised (count); higher = more persistent destabilization
Conditions in all cases: K562; 2-18 h
CSNK1A1 = CSNK1A1 (UniProt P48729)
CSNK1D = CSNK1D (UniProt P48730)
DDR1 = DDR1 (UniProt Q08345)
DYRK1B = DYRK1B (UniProt Q9Y463)
DYRK2 = DYRK2 (UniProt Q92630)
EGFR = EGFR (UniProt P00533)
EGFR_G719S = EGFR_G719S (UniProt P00533)
EGFR_G719S_T790M = EGFR_G719S_T790M (UniProt P00533)
EGFR_L718V = EGFR_L718V (UniProt P00533)
EGFR_L858R = EGFR_L858R (UniProt P00533)

Measured: number of time points

Cn1cc(-c2cnn3c(N)c(Br)c([C@@H]4CCCNC4)nc23)cn1 (2.5 µM)
1: EGFR_L718V | EGFR_L858R
2: EGFR_G719S_T790M
0: all other assays above

CN1CCN(c2cccc(Nc3nc4c(-c5ccc(S(C)(=O)=O)cc5)cccn4n3)c2)CC1 (10 µM)
0: all assays above

Cc1ccc(OCCSc2ncccn2)c(Br)c1 [ZLN024 (hydrochloride)] (10 µM)
0: all assays above

O=C(O)CCC(=O)Nc1ccc(Br)cn1 [Bikinin] (10 µM)
0: all assays above

O=C(Nc1ccc(CN2CCOCC2)cc1)c1ccc(-c2cccc(Cl)c2)o1 (10 µM)
0: all assays above

O=C([O-])c1cc2ccccc2c(Cc2c(O)c(C(=O)[O-])cc3ccccc23)c1O.[Na+].[Na+] [Pamoic acid (disodium)] (10 µM)
0: all assays above

COc1ccc(Cl)c(Nc2nc3ccccc3nc2NS(=O)(=O)c2cccc(NC(=O)C(C)(C)N)c2)c1 [Pilaralisib] (10 µM)
0: all assays above

O=C(CSC1=NCCN1)NC1CCCCCC1 [ICCB-19 (hydrochloride)] (2.5 µM)
2: EGFR_G719S
0: all other assays above

c1cc(-c2c[nH]c3nccc(N4CCC[C@@]5(CCCCN5)C4)c23)ncn1 (10 µM)
0: all assays above

Cc1ccc(C(=O)Nc2ccc(Oc3cc4cnn(C)c4cc3-c3cn[nH]c3)c(F)c2)c(=O)n1-c1ccc(F)cc1 [Merestinib] (2.5 µM)
0: all assays above

OCCn1cc(-c2ccc3c(c2)CC/C3=N\O)c(-c2ccncc2)n1 (10 µM)
0: all assays above

CCOC(=O)N1CCN(C(=O)[C@H](Cc2cccc(C(=N)N)c2)NS(=O)(=O)c2c(C(C)C)cc(C(C)C)cc2C(C)C)CC1 (10 µM)
0: all assays above

CN1CCN(c2cnc3c(C4CCN(C(=O)c5ccc(OC(F)(F)F)cc5N)CC4)ncnc3c2)CC1 (10 µM)
0: all assays above

COc1ccc2c(OCc3nnc4ccc(-c5ccccc5)nn34)ccnc2c1 (2 µM)
0: all assays above

N#Cc1c(C2CCNCC2)cc(-c2c(O)cccc2OCC2CC2)nc1N [ACHP (Hydrochloride)] (10 µM)
0: all assays above

Cn1ncc(Cl)c1-c1cc(C(=O)N[C@H](CN)Cc2ccc(F)c(F)c2)oc1Cl [Uprosertib] (10 µM)
3: DDR1
0: all other assays above

COc1cccc(OC)c1C(=O)OCc1cc(O)ccc1O[C@@H]1O[C@H](CO)[C@@H](O)[C@H](O)[C@H]1O [Curculigoside] (10 µM)
0: all assays above

Cn1cc(-c2ccc3nnc(Sc4ccc5ncccc5c4)n3n2)cn1 (10 µM)
0: all assays above

Cc1ccccc1-n1c([C@H](C)Nc2nc(N)nc3nc[nH]c23)nc2cccc(C)c2c1=O [CAL-130 (Hydrochloride)] (10 µM)
0: all assays above

2 records picked at random from those above:
COc1cccc(OC)c1C(=O)OCc1cc(O)ccc1O[C@@H]1O[C@H](CO)[C@@H](O)[C@H](O)[C@H]1O [Curculigoside] (10 µM)
0: all assays above

Cc1ccccc1-n1c([C@H](C)Nc2nc(N)nc3nc[nH]c23)nc2cccc(C)c2c1=O [CAL-130 (Hydrochloride)] (10 µM)
0: all assays above
